# Laboratory results as given in PubChem BioAssay AID933 (National Center for Advancing Translational Sciences (NCATS), 2007).
# Protein sequences, listed by entry. Tags and fused reporters are not part of them.
# UniProt P16473, whole entry, looked up: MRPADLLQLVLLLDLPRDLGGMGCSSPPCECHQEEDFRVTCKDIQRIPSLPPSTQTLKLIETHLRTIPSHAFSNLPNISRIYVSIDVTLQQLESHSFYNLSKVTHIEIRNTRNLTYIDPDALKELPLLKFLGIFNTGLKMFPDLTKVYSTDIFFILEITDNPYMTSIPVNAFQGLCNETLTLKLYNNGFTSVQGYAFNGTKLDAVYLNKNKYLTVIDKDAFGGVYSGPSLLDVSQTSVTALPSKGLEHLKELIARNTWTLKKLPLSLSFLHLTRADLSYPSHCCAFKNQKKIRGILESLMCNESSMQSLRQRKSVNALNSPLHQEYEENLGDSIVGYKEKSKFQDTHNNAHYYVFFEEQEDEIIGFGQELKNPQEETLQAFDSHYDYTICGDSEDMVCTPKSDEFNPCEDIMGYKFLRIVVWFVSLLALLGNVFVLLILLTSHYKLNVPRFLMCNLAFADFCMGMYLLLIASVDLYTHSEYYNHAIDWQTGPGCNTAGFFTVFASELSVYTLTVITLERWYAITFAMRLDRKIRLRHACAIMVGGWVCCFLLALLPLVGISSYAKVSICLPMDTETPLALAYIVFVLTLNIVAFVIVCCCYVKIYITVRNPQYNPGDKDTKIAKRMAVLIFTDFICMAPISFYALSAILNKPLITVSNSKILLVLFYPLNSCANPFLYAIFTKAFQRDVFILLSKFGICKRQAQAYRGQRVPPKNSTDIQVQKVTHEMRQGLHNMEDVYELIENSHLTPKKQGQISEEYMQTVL
# Inconclusive results, whose numbers are uncertain, are shown. Where the call is inconclusive, the potency comes from a doubtful curve fit.
# Target: Thyrotropin receptor (Homo sapiens) (UniProt P16473)
# Test: Secondary Concentration-Response Assay for Agonists of the Thyroid Stimulating Hormone Receptor: HTRF Activity Detection
# Settings: HEK293-TSHR cells, cAMP HTRF ratio, 30 min; active = well fitted activation curve with a large enough effect in the signal ratio, with a control signal flat; inconclusive = small, poorly fitted or top-dose-only effect, or a change in a side signal; inactive = flat fitted curve, though single readings scatter; the % refers to the signal ratio
# Excerpt: NIH Chemical Genomics Center [NCGC]
# NIH Molecular Libraries Screening Centers Network [MLSCN]
# PI Name: Dr. Marvin Gershengorn, NIH
# Confirmation of Thyroid Stimulating Hormone Receptor Agonists
# TSH is an alpha/beta heterodimeric glycoprotein hormone secreted from the anterior pituitary gland which belongs to the glycoprotein hormone family. The actions of TSH are mediated by a seven-transmembrane receptor, which upon TSH binding couples preferentially to the G-alpha (s) protein (Gs), resulting in activation of adenylate cyclase and increase in cyclic adenosine 3', 5' monophosphate (cAMP). The TSH receptor (THSR) is mainly expressed in thyroid follicular cells and regulates their growth and function. […]
# A confirmatory assay of putative TSHR agonists was conducted on a different TSHR transfected HEK 293 cell line, using an orthogonal detection technology to measure cAMP stimulation: antibody-based Homogeneous Time Resolved Fluorescence (HTRF). […]
# Homogeneous Time Resolved Fluorescence (HTRF) cAMP Assay. […] Plates were measured using the Envision plate reader (PerkinElmer, Boston, MA) with excitation at 330 nm and emissions of 615 nm and 660 nm.
# Keywords: Thyroid-stimulating hormone TSH, TSHR, TSHR agonist, quantitative high throughput screening, qHTS, HTS, probe identification, CNG, cAMP, cyclic nucleotide gated ion channel PubChem
# Potency is the fitted concentration of half-maximal effect.
structure (smiles),measurement,value
C=CCN1C(=O)C2(C(C(=O)OCC)=C(N)Oc3c2c(=O)oc2ccccc32)c2ccccc21 (stereo unspecified),Potency,"inconclusive: 35.5 µM [activator, partial curve]"
